# PubChem BioAssay AID1671190 (National Center for Advancing Translational Sciences (NCATS), 2021)
# By UniProt entry, the sequences of proteins in these tests, tags left out. Where a name states a change or a piece, a line headed by the entry shows the natural chain unless it says otherwise.
# UniProt P18054: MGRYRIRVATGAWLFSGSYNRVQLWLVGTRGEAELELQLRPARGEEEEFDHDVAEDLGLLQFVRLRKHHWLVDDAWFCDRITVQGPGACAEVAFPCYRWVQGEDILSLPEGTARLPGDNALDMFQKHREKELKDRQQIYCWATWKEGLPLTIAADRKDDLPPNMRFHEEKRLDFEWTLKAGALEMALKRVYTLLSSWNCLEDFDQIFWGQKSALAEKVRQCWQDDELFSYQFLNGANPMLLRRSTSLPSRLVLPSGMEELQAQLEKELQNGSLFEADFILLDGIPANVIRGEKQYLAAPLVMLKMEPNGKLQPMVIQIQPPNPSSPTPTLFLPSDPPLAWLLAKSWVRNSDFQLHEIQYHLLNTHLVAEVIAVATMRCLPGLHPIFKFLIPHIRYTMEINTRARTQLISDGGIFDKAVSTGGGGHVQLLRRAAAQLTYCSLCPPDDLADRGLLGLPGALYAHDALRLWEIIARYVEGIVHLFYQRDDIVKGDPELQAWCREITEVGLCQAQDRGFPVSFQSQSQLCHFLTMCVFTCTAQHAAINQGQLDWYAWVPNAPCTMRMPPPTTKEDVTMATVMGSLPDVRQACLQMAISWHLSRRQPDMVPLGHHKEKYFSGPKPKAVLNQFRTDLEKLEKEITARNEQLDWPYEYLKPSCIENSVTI
# Values joined by “and” are separate entries in the source; they are usually repeats but may differ in a detail not shown here. Equal values may be shown once. The campaign covered roughly 580,000 compounds. About 6,100 (1.1%) were called active. Inconclusive results, whose numbers are uncertain, are shown with a selection of clear calls. Calls follow the shape of the dose curve; as a rule, active = well fitted inhibition curve with a large enough effect; inconclusive = small, poorly fitted or top-dose-only effect, or another doubt; inactive = no such curve, though single readings can be large or run the other way. Where the call is inconclusive, the potency comes from a doubtful curve fit.
# Target: Polyunsaturated fatty acid lipoxygenase ALOX12 (Homo sapiens) (UniProt P18054)
# Experiment: Primary qHTS assay for inhibitors of human arachidonate 12S-lipoxygenase (ALOX12): Round 2
# Conditions: purified 12hLO, xylenol orange hydroperoxide absorbance; activity change, negative = inhibition: at 108 µM (top of the series) unless noted
# Summary of the method: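 Hydroperoxide product was detected by ferrous iron/xylenol orange as the 573 to 405 nm absorbance ratio. Arachidonic acid at 40 uM (final) was turned over for 30 min at room temperature by 150 nM human 12hLO, pH 7.0 Hepes buffer, after 15 min compound preincubation.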
# % is scaled to controls: 0 for no effect and ±100 for the full control effect; potency is read from the fitted curve at half-maximal effect.
Compound,Potency,"activity change, negative = inhibition"
CC(=O)N1CCN(c2ccc(NCc3ccc(C)cc3)cc2)CC1,"inconclusive: 39.8 µM [inhibitor, partial curve, poor fit]",–
Cc1ccc(-c2cc(C(=O)NCc3cccnc3)c3c(c2)ncn3C)cn1,"inconclusive: 50.1 µM [inhibitor, single point]",–
COc1cc(OC)cc(-c2c(-c3ccsc3)c3cc(Br)ccc3n2C)c1,"inconclusive: 50.1 µM [inhibitor, partial curve, poor fit]",–
COc1ccc(CC(=O)OCC(=O)c2ccc3c(c2)OCCCO3)cc1,"inconclusive: 39.8 µM [inhibitor, partial curve, poor fit]",–
COc1ccc(-c2cc(C(=O)N(Cc3ccc(Cl)cc3)Cc3ccco3)no2)cc1,"inconclusive: 50.1 µM [inhibitor, partial curve, poor fit]",–
N/C(=N\c1nc2c(c(=O)[nH]1)CCC2)Nc1cccc2ccccc12,–,inactive: -29.5%
CCOc1ccccc1CN1CCN(C2CCN(c3ccccc3F)CC2)CC1CCO (configuration not stated),–,inactive: -5.75%
Cc1ncsc1C(=O)N1CCC(C(=O)O)(n2ccc(-c3ccco3)n2)CC1,–,inactive: 11%
Nc1cc(Cl)ccc1Oc1ccc(Cl)cc1,"inconclusive: 8.91 µM [inhibitor, full curve]",–
O=C(CCc1cccnc1)Nc1cnc2ccccc2c1,–,inactive: -20.4%
Clc1ccc(COc2ccccc2CNCc2cccnc2)c(Cl)c1,"inconclusive: 0.1 µM [inhibitor, full curve, poor fit]",–
O=C(COC(=O)c1ccc([N+](=O)[O-])s1)NC(c1ccccc1)c1ccccc1,–,inactive: -11.7%
CCCCC1=CC2=CC(=O)C(C)(OC(=O)CC)C(=O)C2=CN1CCc1c[nH]c2ccccc12 (configuration not stated),"inconclusive: 35.5 µM [inhibitor, partial curve, poor fit]",–
CC(C(=O)Nc1ccccc1Cl)N1CCN(c2ccccc2)CC1 (configuration not stated),"inconclusive: 39.8 µM [inhibitor, single point]",–
CN(C)Cc1ccc(F)cc1Sc1ccc(Cl)cc1Cl,"inconclusive: 44.7 µM [inhibitor, partial curve, poor fit]",–
CC(C)(CN1CCC(Cc2cccc(C(=O)O)c2)C1)N1CCOCC1 (configuration not stated),–,inactive: 10.3%
CC(Oc1cccc(Cl)c1)C(=O)NC(C)c1ccccc1 (configuration not stated),–,inactive: 34.3%
CCCC(=O)NCc1nnnn1-c1ccc(OCC)cc1,–,inactive: 5.34%
CCCCCn1c(=O)[nH]c2cc(C(=O)NCCCN(CC)CC)ccc2c1=O,"inconclusive: 112 µM [inhibitor, single point]",–
COc1ccc(Cl)c2sc(N(CCN(C)C)C(=O)c3ccc4c(c3)OCCO4)nc12,"inconclusive: 44.7 µM [inhibitor, partial curve, poor fit]",–
CC(C)OP(=O)(OC(C)C)C1(NS(=O)(=O)c2ccc(Cl)cc2)C=C(Cl)C(=O)C(Cl)=C1,"inconclusive: 44.7 µM [inhibitor, partial curve, poor fit]",–
O=C(Nc1ccccc1F)c1ccc(COc2ccc(Cl)cc2Cl)o1,–,inactive: -11.2%
CCOC(=O)c1noc2nc(C)nc(Nc3cccc(C(F)(F)F)c3)c12,–,inactive: -4.11%
CC(C)(C)C1CCC(=NNc2ncc(C(F)(F)F)cc2Cl)CC1 (configuration not stated),"inconclusive: 50.1 µM [inhibitor, partial curve, poor fit]",–

Compound,Potency,"activity change, negative = inhibition"
CN(N=Cc1ccc([N+](=O)[O-])cc1)c1ccccn1,"inconclusive: 126 µM [inhibitor, partial curve, poor fit]",–
COc1cccc(CNC(=O)Cn2c(=O)c3c(ncn3C)n(C)c2=O)c1,–,inactive: 76.5%
O=C(O)c1cccc(-n2cc(-c3cccc(C(F)(F)F)c3)cn2)c1,–,inactive: 10.8%
COc1ccccc1-n1c(SCC(=O)Nc2ccc(Cl)cc2)nc(O)c(Cc2ccccc2)c1=O,"inconclusive: 44.7 µM [inhibitor, partial curve, poor fit]",–
NCCCC[C@H](N)c1nnc([C@H](CC(=O)O)NC(=O)C2CCNCC2)o1,–,inactive: -0.989%
COCCn1cc2c3c(cccc31)CN(C(=O)c1ccc(C)c(C)c1)CC2,–,inactive: 1.19%
CC1CCCN(S(=O)(=O)c2ccc(NC(=O)CN3CCCCC3)cc2)C1 (configuration not stated),–,inactive: -0.532%
COc1cc(OC)c(OC)cc1/C=C(/C#N)c1ccc(Cl)cc1,"inconclusive: 35.5 µM [inhibitor, partial curve, poor fit]",–
COc1cccc(C(=O)CC2c3c(c(Br)c4c(c3OC)OCO4)CCN2C)c1 (configuration not stated),–,inactive: -2.61%
CC(=O)NC12CC3CC(C1)CC(C(=O)OCC(=O)c1cc(C)n(C)c1C)(C3)C2,–,inactive: 154%
C/C(=N\NC(=O)CSCc1ccc(Cl)cc1)c1ccc2c(c1)OCCO2,–,inactive: 0%
O=C(/C=C/c1cc(Br)ccc1O)c1ccco1,"inconclusive: 39.8 µM [inhibitor, partial curve, poor fit]",–
CCc1ccc(-n2cccc2)cc1,–,inactive: -25.9%
O=C(CSc1ccc([N+](=O)[O-])cc1)NNC(=O)c1ccccc1F,–,inactive: -8.77%
Cc1ccc(-c2ccc(/C=N/NC(N)=S)o2)cc1,active: 44.7 µM,–
CC1=C[C@@H](CNC(=O)CC(C)(C)CC(=O)O)[C@H](C(C)C)C[C@H]1Cc1nc2ccc(C)cc2[nH]1,–,inactive: 24.4%
COc1ccc(NC(=O)CCCC2CCCCC2)c(OC)c1,"inconclusive: 50.1 µM [inhibitor, partial curve, poor fit]",–
CNc1nc(NCC2CCCCC2)c2sccc2n1,"inconclusive: 89.1 µM [inhibitor, single point]",–
O=C(Cc1ccccc1)NCC(=O)OCC(=O)c1ccc(OC(=O)c2ccccc2)cc1,"inconclusive: 31.6 µM [inhibitor, single point]",–
Fc1ccc2c(c1)C1OCCCC1C(c1ccccc1)N2 (configuration not stated),–,inactive: 12.7%
Cc1ccc(C2=C(O)C(=O)N(c3ccc(F)cc3)C2c2ccccc2)cc1 (configuration not stated),–,inactive: 9.66%
CC(C)c1cccc(N/C=C/C(=O)c2ccc(Br)cc2)c1,"inconclusive: 3.55 µM [inhibitor, full curve, poor fit]",–
CC(C)OC(=O)OCOP(=O)(CO[C@H](C)Cn1cnc2c(N)ncnc21)OCOC(=O)OC(C)C,"inconclusive: 6.85 µM [inhibitor, full curve] and inconclusive: 112 µM [inhibitor, single point]",–

# 2 neighbouring entries from above:
Compound,Potency,"activity change, negative = inhibition"
Cc1ccc(C2=C(O)C(=O)N(c3ccc(F)cc3)C2c2ccccc2)cc1 (configuration not stated),–,inactive: 9.66%
CC(C)c1cccc(N/C=C/C(=O)c2ccc(Br)cc2)c1,"inconclusive: 3.55 µM [inhibitor, full curve, poor fit]",–
